The match of structure and compound is tentative.
Experiments:
[1] = target: pY641-STAT6 in PBMC (Homo sapiens, UniProt P42226); assay: MSD-pSTAT-PBMC Assay (pSTAT6, IL-4 stimulated); conditions: read-out: STAT6, compound 3 hrs, then 1 ng/mL IL-4 for 10 min, Table 115
[2] = target: Recombinant STAT3 protein (STAT3 (G127-I722)) (Homo sapiens, UniProt P40763); assay: STAT3 Fluorescence Polarization (FP) Assay; conditions: read-out: STAT3 (FP assay IC50 class); STAT3 (G127-I722) 25 nM, probe 5-FAM-GpYLPQTV-NH2 2 nM, 45-minute incubation
[3] = target: Recombinant STAT6 protein (STAT6 (W123-T658)) (Homo sapiens, UniProt P42226); assay: STAT6 Fluorescence Polarization (FP) Assay; conditions: read-out: STAT6 (FP assay IC50 class); STAT6 (W123-T658) 250 nM, probe 5-FAM-ApYKPFQDLI-NH2 2 nM, 45-minute incubation

Amino acid sequences for entries named in this document (tags omitted). Residues count along the entry.
UniProt P42226, 123-658 limits assumed: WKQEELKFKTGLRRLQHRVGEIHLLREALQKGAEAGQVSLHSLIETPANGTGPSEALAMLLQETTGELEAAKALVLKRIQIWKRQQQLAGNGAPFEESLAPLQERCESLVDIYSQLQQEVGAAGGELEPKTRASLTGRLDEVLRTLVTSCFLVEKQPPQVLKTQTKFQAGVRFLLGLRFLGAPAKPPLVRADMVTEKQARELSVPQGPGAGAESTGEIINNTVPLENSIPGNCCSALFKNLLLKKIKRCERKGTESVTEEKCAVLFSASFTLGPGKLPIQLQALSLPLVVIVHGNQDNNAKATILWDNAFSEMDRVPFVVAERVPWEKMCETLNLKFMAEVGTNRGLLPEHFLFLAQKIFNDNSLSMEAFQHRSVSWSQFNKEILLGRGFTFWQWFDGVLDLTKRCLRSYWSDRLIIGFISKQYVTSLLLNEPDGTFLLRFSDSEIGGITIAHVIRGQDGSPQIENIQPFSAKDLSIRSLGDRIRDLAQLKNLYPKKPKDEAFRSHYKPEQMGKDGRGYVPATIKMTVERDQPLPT
UniProt P42226, whole entry: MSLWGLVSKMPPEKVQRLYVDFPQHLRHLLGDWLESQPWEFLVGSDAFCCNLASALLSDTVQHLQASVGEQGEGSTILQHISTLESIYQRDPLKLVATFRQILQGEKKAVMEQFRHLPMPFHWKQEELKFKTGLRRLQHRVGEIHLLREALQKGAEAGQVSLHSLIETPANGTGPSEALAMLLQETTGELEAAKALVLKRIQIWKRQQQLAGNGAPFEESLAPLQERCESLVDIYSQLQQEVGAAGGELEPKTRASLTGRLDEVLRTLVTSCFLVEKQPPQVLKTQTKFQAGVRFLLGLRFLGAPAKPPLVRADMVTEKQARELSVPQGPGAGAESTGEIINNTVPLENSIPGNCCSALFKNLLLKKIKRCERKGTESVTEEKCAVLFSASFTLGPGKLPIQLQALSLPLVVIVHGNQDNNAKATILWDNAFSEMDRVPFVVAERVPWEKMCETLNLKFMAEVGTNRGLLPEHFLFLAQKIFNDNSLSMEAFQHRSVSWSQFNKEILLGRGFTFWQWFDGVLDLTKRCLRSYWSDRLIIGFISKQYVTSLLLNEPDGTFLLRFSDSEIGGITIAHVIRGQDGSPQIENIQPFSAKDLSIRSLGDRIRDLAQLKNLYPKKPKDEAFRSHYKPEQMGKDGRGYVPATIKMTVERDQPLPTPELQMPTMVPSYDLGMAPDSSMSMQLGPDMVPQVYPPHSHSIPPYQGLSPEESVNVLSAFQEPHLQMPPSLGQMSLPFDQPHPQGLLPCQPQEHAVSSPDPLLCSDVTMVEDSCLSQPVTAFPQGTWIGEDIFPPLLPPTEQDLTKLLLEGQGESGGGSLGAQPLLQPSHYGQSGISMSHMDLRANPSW
UniProt P40763, 127-722 limits assumed: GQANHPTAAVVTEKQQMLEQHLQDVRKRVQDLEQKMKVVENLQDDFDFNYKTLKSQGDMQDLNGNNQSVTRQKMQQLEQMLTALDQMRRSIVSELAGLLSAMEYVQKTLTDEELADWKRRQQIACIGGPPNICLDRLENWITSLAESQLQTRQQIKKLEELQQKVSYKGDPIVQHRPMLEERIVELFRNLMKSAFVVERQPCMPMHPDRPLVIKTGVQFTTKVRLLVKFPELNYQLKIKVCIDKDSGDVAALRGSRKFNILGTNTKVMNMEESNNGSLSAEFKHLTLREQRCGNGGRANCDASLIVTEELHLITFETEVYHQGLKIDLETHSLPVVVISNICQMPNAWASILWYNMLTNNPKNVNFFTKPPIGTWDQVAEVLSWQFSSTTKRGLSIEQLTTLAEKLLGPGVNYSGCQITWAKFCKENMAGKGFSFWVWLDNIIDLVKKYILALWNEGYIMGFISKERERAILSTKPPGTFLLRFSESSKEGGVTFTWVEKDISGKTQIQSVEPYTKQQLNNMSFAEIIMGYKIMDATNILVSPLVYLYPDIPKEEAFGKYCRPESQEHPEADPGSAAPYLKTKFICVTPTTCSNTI

| Structure (SMILES) | IC50 [1] | IC50 [2] | IC50 [3] |
| --- | --- | --- | --- |
| CCCOC(=O)[C@H](C)NP(=O)(Oc1ccccc1)[C@@H](F)c1ccc2sc(C(=O)N[C@H]3CCCC[C@H]4CC[C@@H](C(=O)N5C[C@@H](c6cccnc6)CC56CC6)N4C3=O)cc2c1 (single isomer, unassigned) | < 100 nM |  |  |
| Cn1ccc(C2CN(C(=O)[C@@H]3CC[C@@H]4CCCC[C@H](NC(=O)c5ccc6ccc(C(F)(F)P(=O)(O)O)cc6c5)C(=O)N43)C3(CC3)C2)cc1=O (some centres unmarked) |  | 1000 to 10000 nM | < 300 nM |
| CC1C[C@H]2CC[C@@H](C(=O)N3C[C@@H](C#N)[C@H](c4ccccc4)C3)N2C(=O)[C@@H](NC(=O)c2cc3cc(C(F)(F)P(=O)(O)O)ccc3s2)C1 (some centres unmarked) |  | 100 to 1000 nM | < 300 nM |
